According to the supplement of paper PMC4604168 (melanoma cell lines):
The list shows a part of the results. Many values rest on one well or one pass, so single values are uncertain.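 Imaging used 1,536-well plates; nuclei positive for cleaved PARP by antibody were divided by total DNA-stained nuclei to yield the apoptosis fraction. Doses for screening kept most cells viable, and cell lines differ markedly in resting and induced cleaved-PARP levels.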

Legend:
Test in all cases: cleaved PARP positive nuclei fraction relative to DMSO control; melanoma cells; higher = more apoptosis
Conditions in all cases: library dose: low library concentration; 72 h
COLO792 = test system: COLO792
COLO800 = test system: COLO800
COLO829 = test system: COLO829
G361 = test system: G361
IPC-298 = test system: IPC-298
IST-MEL1 = test system: IST-MEL1
LB2518-MEL = test system: LB2518-MEL
LOXIMVI = test system: LOXIMVI

SMILES | cleaved PARP positive nuclei fraction (COLO792) [%] | cleaved PARP positive nuclei fraction (COLO800) [%] | cleaved PARP positive nuclei fraction (COLO829) [%] | cleaved PARP positive nuclei fraction (G361) [%] | cleaved PARP positive nuclei fraction (IPC-298) [%] | cleaved PARP positive nuclei fraction (IST-MEL1) [%] | cleaved PARP positive nuclei fraction (LB2518-MEL) [%] | cleaved PARP positive nuclei fraction (LOXIMVI) [%]
Cn1sc(=O)n(Cc2ccccc2)c1=O + CC(C)CCN1c2nc(Nc3cc(F)c(O)c(F)c3)ncc2N(C)C(=O)C1C [BID1870] (first compound 0.4 µM, partner dose 0.2 µM) | 52.2 | 55.1 | 105 | 173 | 93.9 | 115 | 35 | 114
CCN(CC)CCNC(=O)c1c(C)[nH]c(/C=C2\C(=O)Nc3ccc(F)cc32)c1C [sunitinib] + N#Cc1c(O)c2c(-c3ccc(-c4ccccc4O)cc3)csc2[nH]c1=O [A769662] (first compound 0.4 µM, partner dose 2 µM) | 102 | 90.7 | 69.6 | 83.1 | 237 | 34.4 | 83.4 | 133
CCCCCCCCc1ccc(CCC(N)(CO)CO)cc1 [fingolimod] + CC(C)CCN1c2nc(Nc3cc(F)c(O)c(F)c3)ncc2N(C)C(=O)C1C [BID1870] (first compound 2 µM, partner dose 0.2 µM) | 94.3 | 40.4 | 126 | 94.8 | 95.4 | 85 | 32 | 74.6
Cn1sc(=O)n(Cc2ccccc2)c1=O + O=c1cc(-c2cccc3c2Sc2ccccc2S3)oc(N2CCOCC2)c1 [KU55933] (first compound 0.4 µM, partner dose 1 µM) | 66.5 | 37 | 89.1 | 121 | 91.8 | 167 | 59.6 | 123
CN(c1ncccc1CNc1nc(Nc2ccc3c(c2)CC(=O)N3)ncc1C(F)(F)F)S(C)(=O)=O + CC(C)CCN1c2nc(Nc3cc(F)c(O)c(F)c3)ncc2N(C)C(=O)C1C [BID1870] (first compound 0.08 µM, partner dose 0.2 µM) | 188 | 67.8 | 113 | 108 | 47.3 | 38.4 | 67.3 | 84.4
C[C@@H](N)c1ccc(C(=O)Nc2ccnc3[nH]ccc23)cc1 + O=c1cc(-c2cccc3c2Sc2ccccc2S3)oc(N2CCOCC2)c1 [KU55933] (first compound 0.4 µM, partner dose 1 µM) | 145 | 37.8 | 52.1 | 207 | 147 | 136 | 142 | 105
CCN(CC)CCNC(=O)c1c(C)[nH]c(/C=C2\C(=O)Nc3ccc(F)cc32)c1C [sunitinib] + O=S(=O)(c1ccccc1)N(CC(F)(F)F)c1ccc(C(O)(C(F)(F)F)C(F)(F)F)cc1 [T0901317] (first compound 0.4 µM, partner dose 1.4 µM) | 103 | 66.8 | 64.4 | 82.3 | 70.4 | 36.4 | 37.1 | 161
CC(=O)O[C@@]12CO[C@@H]1C[C@H](O)[C@@]1(C)C(=O)[C@H](O)C3=C(C)[C@@H](OC(=O)[C@H](O)[C@@H](NC(=O)OC(C)(C)C)c4ccccc4)C[C@@](O)([C@@H](OC(=O)c4ccccc4)[C@H]21)C3(C)C [Docetaxel] + COc1ccc2c(c1)CCC1C2CCC2(C)C(NCCCCCCN3C(=O)C=CC3=O)CCC12 [U73122] (first compound 0.0001 µM, partner dose 0.4 µM) | 338 | 490 | 218 | 375 | 200 | 137 | 339 | 110
Cn1sc(=O)n(Cc2ccccc2)c1=O + COC(=O)c1sccc1S(=O)(=O)Nc1ccc(Nc2ccccc2)cc1OC [GSK0660] (first compound 0.4 µM, partner dose 1 µM) | 50.4 | 204 | 98.3 | 246 | 192 | 99.6 | 44.4 | 144
NC1(c2ccc(-c3nc4ccn5c(=O)[nH]nc5c4cc3-c3ccccc3)cc2)CCC1 + O=S(=O)(c1ccccc1)N(CC(F)(F)F)c1ccc(C(O)(C(F)(F)F)C(F)(F)F)cc1 [T0901317] (first compound 0.4 µM, partner dose 1.4 µM) | 225 | 134 | 96.2 | 151 | 102 | 172 | 74 | 104
NC1(c2ccc(-c3nc4ccn5c(=O)[nH]nc5c4cc3-c3ccccc3)cc2)CCC1 + COC(=O)c1sccc1S(=O)(=O)Nc1ccc(Nc2ccccc2)cc1OC [GSK0660] (first compound 0.4 µM, partner dose 1 µM) | 223 | 74.7 | 95.8 | 65.7 | 143 | 138 | 78.7 | 176
C[C@@H](N)c1ccc(C(=O)Nc2ccnc3[nH]ccc23)cc1 + CC(C)CCN1c2nc(Nc3cc(F)c(O)c(F)c3)ncc2N(C)C(=O)C1C [BID1870] (first compound 0.4 µM, partner dose 0.2 µM) | 119 | 108 | 93.1 | 111 | 141 | 142 | 265 | 454
Cn1cnc2c(F)c(Nc3ccc(Br)cc3Cl)c(C(=O)NOCCO)cc21 [selumetinib] + COc1ccc(COc2ccc(Cc3cnc(N)nc3N)cc2OC)cc1 [GW2580] (first compound 0.015 µM, partner dose 1 µM) | 109 | 79.4 | 113 | 159 | 274 | 187 | 113 | 77.5
NC(=O)c1ccc(N(C(N)=O)c2c(F)cccc2F)nc1-c1ccc(F)cc1F + O=S(=O)(c1ccccc1)N(CC(F)(F)F)c1ccc(C(O)(C(F)(F)F)C(F)(F)F)cc1 [T0901317] (first compound 0.4 µM, partner dose 1.4 µM) | 166 | 78 | 57.6 | 94.5 | 101 | 89.8 | 88.2 | 115
CN(c1ncccc1CNc1nc(Nc2ccc3c(c2)CC(=O)N3)ncc1C(F)(F)F)S(C)(=O)=O + N#Cc1c(O)c2c(-c3ccc(-c4ccccc4O)cc3)csc2[nH]c1=O [A769662] (first compound 0.08 µM, partner dose 2 µM) | 21 | 64.8 | 186 | 93.4 | 87.8 | 133 | 68 | 162
CC(=O)O[C@@]12CO[C@@H]1C[C@H](O)[C@@]1(C)C(=O)[C@H](O)C3=C(C)[C@@H](OC(=O)[C@H](O)[C@@H](NC(=O)OC(C)(C)C)c4ccccc4)C[C@@](O)([C@@H](OC(=O)c4ccccc4)[C@H]21)C3(C)C [Docetaxel] + CC(C)CCN1c2nc(Nc3cc(F)c(O)c(F)c3)ncc2N(C)C(=O)C1C [BID1870] (first compound 0.0001 µM, partner dose 0.2 µM) | 492 | 527 | 652 | 672 | 123 | 91.3 | 108 | 131
CC1(C)CCC(c2ccc(Cl)cc2)=C(CN2CCN(c3ccc(C(=O)NS(=O)(=O)c4ccc(N[C@H](CCN5CCOCC5)CSc5ccccc5)c(S(=O)(=O)C(F)(F)F)c4)cc3)CC2)C1 + O=C(O)C(=O)Nc1sc2c(c1C(=O)O)CCNC2 [TCS401] (first compound 0.4 µM, partner dose 1.66667 µM) | 419 | 104 | 104 | 159 | 84.9 | 153 | 223 | 96.4
CS(=O)(=O)c1ccc(C(=O)Nc2ccc(Cl)c(-c3ccccn3)c2)c(Cl)c1 [vismodegib] + COc1ccc2c(c1)CCC1C2CCC2(C)C(NCCCCCCN3C(=O)C=CC3=O)CCC12 [U73122] (first compound 1 µM, partner dose 0.4 µM) | 144 | 185 | 79.2 | 64.7 | 188 | 123 | 67.7 | 144
CC(=O)O[C@@]12CO[C@@H]1C[C@H](O)[C@@]1(C)C(=O)[C@H](O)C3=C(C)[C@@H](OC(=O)[C@H](O)[C@@H](NC(=O)OC(C)(C)C)c4ccccc4)C[C@@](O)([C@@H](OC(=O)c4ccccc4)[C@H]21)C3(C)C [Docetaxel] + CCCCCCCCCCCC1=C(O)C(=O)C=C(O)C1=O [Embelin] (first compound 0.0001 µM, partner dose 1.2 µM) | 478 | 594 | 133 | 806 | 476 | 96.6 | 110 | 153
CN(c1ncccc1CNc1nc(Nc2ccc3c(c2)CC(=O)N3)ncc1C(F)(F)F)S(C)(=O)=O + O=C(O)C(=O)Nc1sc2c(c1C(=O)O)CCNC2 [TCS401] (first compound 0.08 µM, partner dose 1.66667 µM) | 79.4 | 204 | 55.4 | 85.1 | 82.7 | 155 | 84.8 | 109
NC1(c2ccc(-c3nc4ccn5c(=O)[nH]nc5c4cc3-c3ccccc3)cc2)CCC1 + O=C(Nc1ccccc1)c1cc([N+](=O)[O-])ccc1Cl [GW9662] (first compound 0.4 µM, partner dose 2 µM) | 38.5 | 328 | 120 | 87.8 | 82.2 | 110 | 152 | 97.3
Cn1sc(=O)n(Cc2ccccc2)c1=O + CCN(CC)CCCCNc1ncc2cc(-c3cc(OC)cc(OC)c3)c(NC(=O)NC(C)(C)C)nc2n1 [PD173074] (first compound 0.4 µM, partner dose 0.1 µM) | 92.8 | 74.5 | 74.7 | 67.7 | 60.4 | 84.5 | 61 | 31.4
NC(=O)c1ccc(N(C(N)=O)c2c(F)cccc2F)nc1-c1ccc(F)cc1F + O=C(O)C(=O)Nc1sc2c(c1C(=O)O)CCNC2 [TCS401] (first compound 0.4 µM, partner dose 1.66667 µM) | 62.4 | 140 | 55.3 | 101 | 224 | 106 | 70 | 44.8
CN(c1ncccc1CNc1nc(Nc2ccc3c(c2)CC(=O)N3)ncc1C(F)(F)F)S(C)(=O)=O + COc1ccc2c(c1)CCC1C2CCC2(C)C(NCCCCCCN3C(=O)C=CC3=O)CCC12 [U73122] (first compound 0.08 µM, partner dose 0.4 µM) | 119 | 61.7 | 31.8 | 83.6 | 92.1 | 107 | 73.3 | 67.5

Record cards, from the list above. Order of values: cleaved PARP positive nuclei fraction (COLO792) [%] | cleaved PARP positive nuclei fraction (COLO800) [%] | cleaved PARP positive nuclei fraction (COLO829) [%] | cleaved PARP positive nuclei fraction (G361) [%] | cleaved PARP positive nuclei fraction (IPC-298) [%] | cleaved PARP positive nuclei fraction (IST-MEL1) [%] | cleaved PARP positive nuclei fraction (LB2518-MEL) [%] | cleaved PARP positive nuclei fraction (LOXIMVI) [%]
Cn1sc(=O)n(Cc2ccccc2)c1=O + O=c1cc(-c2cccc3c2Sc2ccccc2S3)oc(N2CCOCC2)c1 [KU55933] (first compound 0.4 µM, partner dose 1 µM) reads 66.5 | 37 | 89.1 | 121 | 91.8 | 167 | 59.6 | 123
Cn1sc(=O)n(Cc2ccccc2)c1=O + COC(=O)c1sccc1S(=O)(=O)Nc1ccc(Nc2ccccc2)cc1OC [GSK0660] (first compound 0.4 µM, partner dose 1 µM) reads 50.4 | 204 | 98.3 | 246 | 192 | 99.6 | 44.4 | 144
